Consider 21 molecules from PubChem BioAssay AID330 (DTP/NCI, 2004).

The list shows only some results of the screen, not a fair sample: it is rich in T/C values a quarter to a half above the control, in often repeated tests (any T/C) and in doses without a T/C. Other doses and runs of a compound stand elsewhere. T/C is the treated group as % of the vehicle group. Some entries give survivors of the animals treated and no T/C: the source files T/C as zero there, which appears to mark a toxic dose or a test without result, not a measured value. Some doses without a T/C left all or most animals alive at the check, yet need not have been tolerated: the source hardly ever lists a survival T/C far under the control, and the zero likely stands for such cases as well. Survivors were counted at the toxicity check, usually on the fifth day, unless a day is given; later deaths do not show. Schedules are NCI's codes, read here as Q, the interval in days (D) or hours (H), X, the number of doses. Some entries were tested several times; the values are given in rising order. Where survival is the endpoint, the PubChem record calls one and a half times the control and up active, and a quarter to a half above the control has no call in these data; cut-offs in other NCI protocols can differ. Some T/C values carry the count of animals alive at the toxicity check (mostly the fifth day); without a count, all were alive then.

In the experiment the test system is P388 leukemia ip, CD2F1 mice, survival T/C. Kind of experiment: NCI In Vivo Anticancer Drug Screen. Data for tumor model P388 Leukemia (intraperitoneal) in CD2F1 (CDF1) mice. The settings on record: T/C endpoint: median survival time, higher T/C = longer survival.
Where [1] appears, read: dose: 100.0 mg/kg/injection, schedule: Q04DX003 (ip), vehicle: saline.
Where [2] appears, read: dose: 50.0 mg/kg/injection, schedule: Q01DX005 (ip), vehicle: Klucel (hydroxypropylcellulose) (HPC).
The mark [3] stands for this setting: dose: 200.0 mg/kg/injection, schedule: Q01DX005 (ip), vehicle: Klucel (hydroxypropylcellulose) (HPC).
[4] abbreviates: dose: 400.0 mg/kg/injection, schedule: Q01DX005 (ip), vehicle: Klucel (hydroxypropylcellulose) (HPC).

As for `COc1cccc2c1C(=O)c1c(O)c3c(c(O)c1C2=O)C[C@@](O)(/C(CO)=N/NS(=O)(=O)c1ccc(C)cc1)C[C@@H]3OC1CC(N)C(O)C(C)O1` (some centres undefined), the T/C reads like this: (dose: 0.78 mg/kg/injection, schedule: Q01DX009 (ip), vehicle: water) 125 % of control; (dose: 3.13 mg/kg/injection, schedule: Q01DX009 (ip), vehicle: water) 125 and 137 % of control; (dose: 12.5 mg/kg/injection, schedule: Q01DX009 (ip), vehicle: water) 125 % of control.
For `O=C(Oc1ccc[nH]c1=O)C1CC1`, the T/C (dose: 400.0 mg/kg/injection, schedule: Q01DX009 (ip), vehicle: saline) was 126 % of control [4 of 6 alive].
Consider `CCOc1c(N=Nc2ccc(C)cc2)c(C)nn1C(N)=S`, for which the survivor count was 0 of 6 (dose: 60.0 mg/kg/injection, schedule: Q01DX005 (ip), vehicle: Klucel + Tween-80); 0 of 6 (dose: 120.0 mg/kg/injection, schedule: Q01DX005 (ip), vehicle: Klucel + Tween-80); 0 of 6 (dose: 240.0 mg/kg/injection, schedule: Q01DX005 (ip), vehicle: Klucel + Tween-80).
In the case of `Clc1ccc(NCc2ccc(CNc3ccc(Cl)cc3)cc2)cc1`, the survivor count was 6 of 6 (dose: 50.0 mg/kg/injection, schedule: Q01DX009 (ip), vehicle: saline with Tween-80); 6 of 6 (dose: 100.0 mg/kg/injection, schedule: Q01DX009 (ip), vehicle: saline with Tween-80); 5 of 6 (dose: 200.0 mg/kg/injection, schedule: Q01DX009 (ip), vehicle: saline with Tween-80).
On to `CC1(C=O)CCCC2(C)[C@@H]1CCC13CC(CO)C(CC[C@H]12)C3` (some centres undefined), for which the survivor count is 6 of 6 (dose: 6.5 mg/kg/injection, schedule: Q01DX005 (ip), vehicle: Klucel (hydroxypropylcellulose) (HPC)) and 6 of 6 (dose: 13.0 mg/kg/injection, schedule: Q01DX005 (ip), vehicle: Klucel (hydroxypropylcellulose) (HPC)).
On to `COn1nnc2ccc(N)cc21`, for which the survivor count (dose: 400.0 mg/kg/injection, schedule: Q04DX002 (ip), vehicle: saline) is on record as 0 of 6.
As to `NC(=O)/C=C/C(=O)NC(=O)Cc1ccccc1`, for the setting “dose: 12.0 mg/kg/injection, schedule: Q01DX009 (ip), vehicle: saline with Tween-80”, the T/C is 126 % of control.
`CCCCNP(=O)(N1CC1C)N1CC1C` (centres undefined): the T/C is, setting by setting: (dose: 12.5 mg/kg/injection, schedule: Q01DX009 (ip), vehicle: saline) 131 % of control; (dose: 18.75 mg/kg/injection, schedule: Q01DX009 (ip), vehicle: saline) 145 % of control; (dose: 25.0 mg/kg/injection, schedule: Q04DX003 (ip), vehicle: saline) 127 % of control; (dose: 50.0 mg/kg/injection, schedule: Q04DX003 (ip), vehicle: saline) 145 % of control. In addition, the survivor count under setting [1] is 6 of 6.
`C[CH2][Sn]([CH2]C)([N](c1ccccn1)c1ccccn1)[N](c1ccccn1)c1ccccn1`: the T/C (dose: 3.12 mg/kg/injection, schedule: Q01DX005 (ip), vehicle: Klucel (hydroxypropylcellulose) (HPC)) is 128 % of control. Besides, the survivor count is, setting by setting: under setting [2], 3 of 6; (dose: 100.0 mg/kg/injection, schedule: Q01DX005 (ip), vehicle: Klucel (hydroxypropylcellulose) (HPC)) 0 of 6; under setting [3], 0 of 6.
In the case of `O=C(CCN1CC1)OCCOC(=O)CCN1CC1`, the T/C (dose: 33.0 mg/kg/injection, schedule: Q04DX003 (ip), vehicle: saline with Tween-80) is 133 % of control. Besides, under setting [1], the survivor count was 6 of 6.
Turning to `CC(NNC(=S)N1CCC(c2ccccc2)CC1)c1ccc2ccccc2n1` (centres undefined), under setting [3], the survivor count is 3 of 5.
Turning to `COC(=O)[C@@]12OC[C@]34C([C@@H](O)C1O)[C@@]1(C)CC(=O)C(O)=C(C)C1C[C@H]3OC(=O)[C@H](OC(=O)c1ccc(Cl)cc1)[C@H]42` (some centres undefined), for the setting “dose: 32.0 mg/kg/injection, schedule: Q01DX005 (ip), vehicle: DMSO”, the survivor count is 3 of 6.
Turning to `CC1CCC(C(C)C)C(NC(=O)C[n+]2cccc(C(N)=O)c2)C1` (centres undefined), the survivor count was 3 of 6 (dose: 100.0 mg/kg/injection, schedule: Q04DX002 (ip), vehicle: saline with Tween-80); 0 of 6 (dose: 200.0 mg/kg/injection, schedule: Q04DX002 (ip), vehicle: saline with Tween-80); 0 of 6 (dose: 400.0 mg/kg/injection, schedule: Q04DX002 (ip), vehicle: saline with Tween-80).
As to `COc1ccc2c(C)cc(N/N=C/c3cccc(C)n3)nc2c1`, the survivor count under setting [4] is listed as 0 of 6.
For `CC(=O)Nc1ccc(S(=O)(=O)c2ccc([N+](=O)[O-])s2)cc1`, the survivor count (dose: 100.0 mg/kg/injection, schedule: Q04DX003 (ip), vehicle: Klucel (hydroxypropylcellulose) (HPC)) is listed as 1 of 6.
For the molecule `CCN(CC)CCOCc1cccc2c(=O)cc(-c3ccccc3)oc12`, where the note is “dose: 200.0 mg/kg/injection, schedule: Q01DX009 (ip), vehicle: saline”, the survivor count is 0 of 6.
Consider `COc1cc(C)c(/C=C/C(C)=C/c2cc(C)cc(=O)o2)c(C)c1C`, for which the survivor count runs as follows: under setting [2], 6 of 6; under setting [3], 6 of 6.
As to `NC(N)=NS(=O)(=O)c1ccc(N=c2c3ccccc3n(-c3ccccc3)c3ccccc23)cc1`, the survivor count (dose: 200.0 mg/kg/injection, schedule: Q01DX005 (ip), vehicle: saline with Tween-80) was 5 of 6.
`O=c1[nH]nnc2nc(N3CCOCC3)sc12`: where the note is “dose: 400.0 mg/kg/injection, schedule: Q01DX001 (ip), vehicle: saline with Tween-80”, the survivor count is recorded as 0 of 6.
As for `CN(C)c1ccc(C(c2c(O)c3ccccc3oc2=O)c2c(O)c3ccccc3oc2=O)cc1`, the survivor count is 6 of 6 (dose: 30.0 mg/kg/injection, schedule: Q01DX005 (ip), vehicle: saline with Tween-80); 5 of 6 and 6 of 6 (dose: 60.0 mg/kg/injection, schedule: Q01DX005 (ip), vehicle: saline with Tween-80); 2 of 5 (dose: 120.0 mg/kg/injection, schedule: Q01DX005 (ip), vehicle: saline with Tween-80); 2 of 6 (dose: 240.0 mg/kg/injection, schedule: Q01DX005 (ip), vehicle: saline with Tween-80).
On to `Cn1cc(C2NC(=O)c3ccccc3N2)c2ccccc21` (centres undefined), for which the T/C runs as follows: (dose: 133.0 mg/kg/injection, schedule: Q01DX005 (ip), vehicle: Klucel (hydroxypropylcellulose) (HPC)) 139 % of control; under setting [3], 145 and 146 % of control. For the same molecule, the survivor count under setting [4] was 5 of 5.
